Measured values from article PMC7397868, “System-wide analyses of the fission yeast poly(A)+ RNA interactome reveal insights into organization and function of RNA–protein complexes”.
No constants are given. Whether binding was seen depends on the method and setting. Some binding calls cover weakened binding; strength is not graded here.

Target: T1, S. pombe Pch1 (S. pombe) (UniProt O74627)
T1 sequence: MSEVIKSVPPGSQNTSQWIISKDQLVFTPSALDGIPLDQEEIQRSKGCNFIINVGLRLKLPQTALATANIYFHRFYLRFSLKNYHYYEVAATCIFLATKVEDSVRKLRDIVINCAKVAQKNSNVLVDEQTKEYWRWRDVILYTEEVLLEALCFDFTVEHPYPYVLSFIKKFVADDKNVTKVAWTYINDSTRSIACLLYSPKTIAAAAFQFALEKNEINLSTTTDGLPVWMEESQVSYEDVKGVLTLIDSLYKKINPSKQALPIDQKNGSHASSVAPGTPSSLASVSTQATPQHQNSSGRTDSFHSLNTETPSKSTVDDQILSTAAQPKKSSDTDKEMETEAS
Test: co-purification (Ni-NTA affinity, then gel filtration); Cdk9 and His-tagged Pch1 coexpressed in Sf9 cells; lysate in 25 mM Tris-HCl pH 8.0, 500 mM NaCl, 10 mM imidazole applied to Ni-NTA resin, eluted with 250 mM imidazole; His-tag cleaved with TEV; Superdex 200 in 20 mM HEPES 7.5, 150 mM NaCl; in the cold

binding: binds
B1: S. pombe Cdk9 (enzyme, UniProt Q96WV9 1-591)
chain: MKRSSSVSVEDEKSARRKLDVVPKLHFVGCSHLTDYHLMEKLGEGTFGEVYKSQRRKDGKVYALKRILMHTEKEGFPITAIREIKILKSIKHENIIPLSDMTVVRADKKHRRRGSIYMVTPYMDHDLSGLLENPSVKFTEPQIKCYMKQLFAGTKYLHDQLILHRDLKAANLLIDNHGILKIADFGLARVITEESYANKNPGLPPPNRREYTGCVVTRWYRSPELLLGERRYTTAIDMWSVGCIMAEMYKGRPILQGSSDLDQLDKIFRLCGSPTQATMPNWEKLPGCEGVRSFPSHPRTLETAFFTFGKEMTSLCGAILTLNPDERLSASMALEHEYFTTPPYPANPSELQSYSASHEYDKRRKREQRDANSHAFEQTANGKRQFRFMTRGPSDPWYGIRRPNYNSQPQYQRGSYNREGGNMDRSRNVNYQPKRQQNFKPLTSDLPQKNSEFSETNAMNQTSNHSHADGQRYYRPEQDRSQRLRNPSDYGRQGRQSSQSQQPAWNVSSRYQNNSKVQTTSRASENADTNKTQHNIKYIDSYVPEYSIARQSANQKTNEQHPSSTSLHQQSTSDLKSPSFHENSNVDDTPK
